Laboratory results: PubChem BioAssay AID1259254 (NCATS, 2017)

Assay: 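Gene knock-downs that lead to re-replication, shown by excess G2 DNA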 (primary screen)
Cells: human HCT116 colorectal cancer cells
Reagent: single siRNA against human genes
Timing: 3 days
Detection: 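Nuclei stained with Hoechst and imaged; cell-cycle phase assigned by DNA content; G2 share scaled per plate, non-targeting siRNA 0%, GMNN siRNA 100%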
Reading the numbers: G2 robust z-score and G2 cells, % of GMNN control: higher = more G2 cells, more excess DNA replication
Active means: 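Active siRNAs have a G2 robust z of 5 or more median absolute deviations over the median, which in these data means about 38% or higher of GMNN control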
In all, the deposit lists about 59,000 reagents; shown is an unselected part. About 1,550 of them (2.6%) count as active. 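G2 share is only a proxy for re-replication; each gene was hit by three separate siRNAs, and active genes were retested.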 Reagents against one gene are numbered here. Further read-outs or replicates are left out here. No sequences are given here. The record does not give: the amount of reagent.

With knock-down of MAPKAPK3 (GeneID 7867) #1, the screen gave G2 robust z-score 1.84; G2 cells, % of GMNN control 15.9; inactive.
MAPKAPK3 (GeneID 7867) #2 showed G2 robust z-score 3.5; G2 cells, % of GMNN control 27.6; inactive.
With knock-down of MAPKAPK3 (GeneID 7867) #3 the results were G2 robust z-score -0.567; G2 cells, % of GMNN control -1.02; inactive.
With knock-down of FHDC1 (GeneID 85462) #1, the record shows G2 robust z-score -0.327; G2 cells, % of GMNN control 0.668; inactive.
After knock-down of FHDC1 (GeneID 85462) #2, the screen gave G2 robust z-score 0.324; G2 cells, % of GMNN control 5.25; inactive.
FHDC1 (GeneID 85462) #3 scored G2 robust z-score 1.09; G2 cells, % of GMNN control 10.7; inactive.
For SLC16A6 (GeneID 9120) #1, the entry reads G2 robust z-score -0.687; G2 cells, % of GMNN control -1.87; inactive.
Depletion of SLC16A6 (GeneID 9120) #2 resulted in: G2 robust z-score -0.422; G2 cells, % of GMNN control -0.00238; inactive.
SLC16A6 (GeneID 9120) #3 showed G2 robust z-score -0.889; G2 cells, % of GMNN control -3.29; inactive.
Depletion of ATP1A1 (GeneID 476) #1 gave: G2 robust z-score 3.64; G2 cells, % of GMNN control 28.5; inactive.
After knock-down of ATP1A1 (GeneID 476) #2, the screen gave G2 robust z-score -1.15; G2 cells, % of GMNN control -5.13; inactive.
ATP1A1 (GeneID 476) #3 showed G2 robust z-score 1.32; G2 cells, % of GMNN control 12.3; inactive.
Against PPCDC (GeneID 60490) #1, the values are G2 robust z-score -0.31; G2 cells, % of GMNN control 0.783; inactive.
PPCDC (GeneID 60490) #2 showed G2 robust z-score 0.501; G2 cells, % of GMNN control 6.49; inactive.
PPCDC (GeneID 60490) #3 showed G2 robust z-score 4.7; G2 cells, % of GMNN control 36.1; inactive.
Silencing of PUS7 (GeneID 54517) #1 came out at: G2 robust z-score -0.279; G2 cells, % of GMNN control 1; inactive.
PUS7 (GeneID 54517) #2 gave G2 robust z-score -0.72; G2 cells, % of GMNN control -2.1; inactive.
Silencing of PUS7 (GeneID 54517) #3 resulted in: G2 robust z-score -0.638; G2 cells, % of GMNN control -1.52; inactive.

Not a retest: an excerpt of the list.
PPCDC (GeneID 60490) #3 | G2 robust z-score: 4.7; G2 cells, % of GMNN control: 36.1; Call: inactive
PUS7 (GeneID 54517) #1 | G2 robust z-score: -0.279; G2 cells, % of GMNN control: 1; Call: inactive
